Laboratory results: patent US11078450B2, “Material containing solid bleaching agent, and detergent composition” (SHIKOKU CHEMICALS CORPORATION, priority 2016, dated 2021)

Assay: Stability test 1 (storage test), effective oxygen retention rate
Conditions: uncoated solid bleaching agent (before coating)

O=S(=O)(O)O.O=S(=O)(O)OO.[K+].[K+].[K+].[K+].[K+] [Peroxysulfuric acid-sulfuric acid-penta-potassium salt]
Stability test 1: before coating, effective oxygen retention rate (%): 3%
